Data reported in patent US11161888B2, “Method for regulating targeting of Cyclin Y (CCNY) protein to synapses” (KOREA INSTITUTE OF SCIENCE AND TECHNOLOGY, priority 2018, dated 2021).

B1: CCNY-C208S-EGFP: cysteine-to-serine mutant of CCNY having low CSS-Palm score (protein)
chain: MGNTTSCCVSSSPKLRRNAHSRLESYRPDTDLSREDTGCNLQHISDRENIDDLNMEFNPSDHPRASTIFLSKSQTDVREKRKSLFINHHPPGQTSRKYSSCSTIFLDDSTVSQPNLKYTIKCVALAIYYHIKNRDPDGRMLLDIFDENLHPLSKSEVPPDYDKHNPEQKQIYRFVRTLFSAAQLTAECAIVTLVYLERLLTYAEIDISPANWKRIVLGAILLASKVWDDQAVWNVDYCQILKDITVEDMNELERQFLELLQFNINVPSSVYAKYYFDLRSLAEANSLSFPLEPLSRERAHKLEAISRLCEDKYKDLRKPMRKRSASADNLILPRWSPAIIS
B2: CCNY-C238S-EGFP: cysteine-to-serine mutant of CCNY having low CSS-Palm score (protein)
chain: B1 chain with S208C, C238S
B3: CCNY-C122S-EGFP: cysteine-to-serine mutant of CCNY having low CSS-Palm score (protein)
chain: B1 chain with C122S, S208C
B4: CCNY-C188S-EGFP: cysteine-to-serine mutant of CCNY having low CSS-Palm score (protein)
chain: B1 chain with C188S, S208C
B5: CCNY-C39S-EGFP: cysteine-to-serine mutant of CCNY having low CSS-Palm score (protein)
chain: B1 chain with C39S, S208C
B6: CCNY-C101S-EGFP: cysteine-to-serine mutant of CCNY having low CSS-Palm score (protein)
chain: B1 chain with C101S, S208C
B7: CCNY-C309S-EGFP: cysteine-to-serine mutant of CCNY having low CSS-Palm score (protein)
chain: B1 chain with S208C, C309S

What follows are molecules tested on hippocampal neurons (assay: Subcellular localization imaging of EGFP-tagged CCNY constructs in cultured hippocampal neurons). Settings: cysteine-to-serine mutants (FIG. 2C).
Assay type: cell-based, rat

Cell surface localization of the construct, clear surface localization:
B1
B2
B3
B4
B5
B6
B7

Positions count from the first letter of the chain named. Numbers in names are those of the source. Some entries repeat one wording, which the source may state once for all of them.
